From patent US7368293 (ROCKEFELLER UNIVERSITY, dated 2008)
Results are given in words; binding and its absence hold for the method and conditions named. Some entries that bind do so weakly or less than the wild type.

Key:
[1] = target: T1, HNF-4 truncated protein translated in vitro from Hga I-cut pf7 template (cut at nucleotide 1171) (rat) (UniProt P22449); experiment: co-translation in vitro, gel mobility-shift (FIG. 5D)
T1 sequence: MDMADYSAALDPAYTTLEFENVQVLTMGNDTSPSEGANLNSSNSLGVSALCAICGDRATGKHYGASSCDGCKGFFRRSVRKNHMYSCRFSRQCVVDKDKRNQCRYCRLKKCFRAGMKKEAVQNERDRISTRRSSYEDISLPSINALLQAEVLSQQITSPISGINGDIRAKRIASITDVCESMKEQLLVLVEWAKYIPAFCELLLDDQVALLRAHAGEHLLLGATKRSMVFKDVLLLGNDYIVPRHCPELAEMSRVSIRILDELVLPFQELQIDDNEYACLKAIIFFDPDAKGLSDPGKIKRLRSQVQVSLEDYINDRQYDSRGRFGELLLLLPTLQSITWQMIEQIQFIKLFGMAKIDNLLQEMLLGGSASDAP

[2] = target: T2, HNF-4 truncated protein translated in vitro from PflM I-cut pf7 template (cut at nucleotide 1309) (rat) (UniProt P22449); experiment: as above
T2 sequence: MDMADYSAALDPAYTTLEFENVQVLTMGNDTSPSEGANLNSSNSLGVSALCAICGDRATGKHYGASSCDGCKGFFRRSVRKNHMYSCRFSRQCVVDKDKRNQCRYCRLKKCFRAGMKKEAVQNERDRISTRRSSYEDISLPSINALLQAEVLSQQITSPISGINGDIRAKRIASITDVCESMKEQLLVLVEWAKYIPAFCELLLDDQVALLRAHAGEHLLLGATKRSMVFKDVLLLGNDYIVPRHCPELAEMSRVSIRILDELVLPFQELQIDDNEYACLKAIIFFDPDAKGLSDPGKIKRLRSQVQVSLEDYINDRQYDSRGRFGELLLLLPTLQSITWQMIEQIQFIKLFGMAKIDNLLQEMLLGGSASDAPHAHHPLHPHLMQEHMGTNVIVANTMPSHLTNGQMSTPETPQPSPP

[3] = target: T1, HNF-4 truncated protein translated in vitro from Hga I-cut pf7 template (cut at nucleotide 1171) (rat); experiment: co-translation in vitro (reticulocyte lysate), gel mobility-shift with 32P APF-1 probe; complexes of intermediate mobility
[4] = target: T2, HNF-4 truncated protein translated in vitro from PflM I-cut pf7 template (cut at nucleotide 1309) (rat); experiment: as above

- binding [1]: binds
- binding [2]: binds
- binding [3]: binds
- binding [4]: binds
B1: HNF-4 (hepatocyte nuclear factor 4), full length protein translated in vitro from pf7 cDNA (Xho I-cut template) (receptor)
chain: MDMADYSAALDPAYTTLEFENVQVLTMGNDTSPSEGANLNSSNSLGVSALCAICGDRATGKHYGASSCDGCKGFFRRSVRKNHMYSCRFSRQCVVDKDKRNQCRYCRLKKCFRAGMKKEAVQNERDRISTRRSSYEDISLPSINALLQAEVLSQQITSPISGINGDIRAKRIASITDVCESMKEQLLVLVEWAKYIPAFCELLLDDQVALLRAHAGEHLLLGATKRSMVFKDVLLLGNDYIVPRHCPELAEMSRVSIRILDELVLPFQELQIDDNEYACLKAIIFFDPDAKGLSDPGKIKRLRSQVQVSLEDYINDRQYDSRGRFGELLLLLPTLQSITWQMIEQIQFIKLFGMAKIDNLLQEMLLGGSASDAPHAHHPLHPHLMQEHMGTNVIVANTMPSHLTNGQMSTPETPQPSPPSGSGSESYKLLPGAITTIVKPPSAIPQPTITKQEAI
notes: Translated in rabbit reticulocyte lysate from T3/T7 transcripts of pf7 (rat liver cDNA); also called full length cDNA (Xho I); in vitro synthesized HNF-4
